Like-named read-outs stand apart in the source and are kept apart here.

For series [1] the following is noted: cited from earlier work.
Series [2] is described as follows: In-vivo recovery of microdialysis probes (retrodialysis). Set-up: species or system rat.

For `CC(=O)Nc1ccc(O)cc1` [Acetaminophen], the “in vivo recovery (loss %)” value is 12.0% in series [1] (BrainECF probe, ref Westerhout, 2011); 8.60% in series [1] (CSFCM probe, ref Westerhout, 2011); 8.10% in series [1] (CSFLV probe, ref Westerhout, 2011).
Turning to `CN1CC[C@]23c4c5ccc(O)c4O[C@H]2[C@@H](O)C=C[C@H]3[C@H]1C5` [Morphine], the “in vivo recovery (loss %)” value is recorded as 16.1% in series [1] (BrainECF probe, 4mg/kg, ref Groenendaal, 2007); 20.3% in series [1] (BrainECF probe, 40mg/kg, ref Groenendaal, 2007); 8.40% in series [1] (BrainECF probe, ref Bouw, 2000); 40.9% in series [1] (Plasma probe, ref Bouw, 2000).
On to `Cc1nc2n(c(=O)c1CCN1CCC(c3noc4cc(F)ccc34)CC1)CCCC2O` (stereo not shown) [Paliperidone], for which the “in vivo recovery (loss %)” value in series [2] (BrainECF probe) came out at 18.0%; in series [2] (CSFCM probe), 10.0%.
Take `CC(C)NCC(O)COc1ccc(CC(N)=O)cc1` (stereo not shown) [Atenolol]: the “in vivo recovery (loss %)” value in series [1] (BrainECF probe, ref de lange, 1994) is listed as “BrainECF: 13.0%”.
Take `O=C1NC(=O)C(c2ccccc2)(c2ccccc2)N1` [Phenytoin]: the “in vivo recovery (loss %)” value in series [2] (BrainECF probe) is on record as “BrainECF: 35.0%”.
`C=C[C@H]1C[N@@]2CC[C@H]1C[C@@H]2[C@@H](O)c1ccnc2ccc(OC)cc12` [Quinidine]: the “in vivo recovery (loss %)” value in series [1] (BrainECF probe, ref Westerhout, 2013) is 9.10%; in series [1] (CSFCM probe, ref Westerhout, 2013), 3.50%; in series [1] (CSFLV probe, ref Westerhout, 2013), 2.90%.
`CN(Cc1cnc2nc(N)nc(N)c2n1)c1ccc(C(=O)N[C@@H](CCC(=O)O)C(=O)O)cc1` [Methotrexate]: the “in vivo recovery (loss %)” value is on record as 7.10% in series [1] (BrainECF probe, with probenecid, ref Westerhout, 2014); 22.1% in series [1] (BrainECF probe, without probenecid, ref Westerhout, 2014); 21.6% in series [1] (CSFCM probe, with probenecid, ref Westerhout, 2014); 35.9% in series [1] (CSFCM probe, without probenecid, ref Westerhout, 2014); 16.9% in series [1] (CSFLV probe, with probenecid, ref Westerhout, 2014); 28.1% in series [1] (CSFLV probe, without probenecid, ref Westerhout, 2014).
Consider `Cc1nc2n(c(=O)c1CCN1CCC(c3noc4cc(F)ccc34)CC1)CCCC2` [Risperidone], for which the “in vivo recovery (loss %)” value in series [2] (BrainECF probe) is on record as 22.0%; in series [2] (CSFCM probe) it was 10.0%.

The values above are taken from paper PMC5236087, “A Generic Multi-Compartmental CNS Distribution Model Structure for 9 Drugs Allows Prediction of Human Brain Target Site Concentrations” (Pharmaceutical Research, 2016).
